Where no end group is shown, it is not given here. [ ]: non-standard residue; d: D form. Hyp = O=C(O)[C@@H]1C[C@@H](O)CN1

The data set is described as follows: peptide made by a vendor. Particulars: whole synthesis, HPLC.

Take [Hyp]GQDGLAGPK: the “purity (crude or final not stated)” value is given as 99.3%.

For the origin of these results see US10532084B2 (EYEBIO KOREA, priority 2016, dated 2020).
